Source: article PMC5364535
These are yes or no findings as the source states them, for the method shown. Some results given as binding are weak or reduced against the parent protein; the word gives no strength. Values belong to the binder of their own block, whether it stands above or below them.

What was measured:
CheB (E. coli) [1] = molecular target: T1, CheB (E. coli) (UniProt P07330); test: PdF assay; in E. coli cells; target proteins fused to CI(N,wt) or CI(N,mut); dimerisation protects a core DNA sequence from DNase I; copy number read by qPCR (also by BAD with Beacon-I, Fig. 4A); normalized PdF signal
T1 sequence: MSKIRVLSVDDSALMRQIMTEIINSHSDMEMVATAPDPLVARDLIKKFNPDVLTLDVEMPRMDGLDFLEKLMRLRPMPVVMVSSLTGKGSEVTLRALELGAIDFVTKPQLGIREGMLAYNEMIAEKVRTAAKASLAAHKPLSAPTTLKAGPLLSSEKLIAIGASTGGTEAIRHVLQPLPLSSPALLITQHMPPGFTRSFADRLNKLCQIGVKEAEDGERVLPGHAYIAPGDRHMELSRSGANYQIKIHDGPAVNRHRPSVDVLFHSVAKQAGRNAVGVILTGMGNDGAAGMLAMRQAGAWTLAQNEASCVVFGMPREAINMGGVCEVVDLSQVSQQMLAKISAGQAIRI

CheY (E. coli) = CheY (E. coli) (UniProt P0AE67); test: Protein-interactome Footprinting (PiF); in E. coli JM109 cells co-transformed with X-pPIDATR1 and Y-pPIDKTR2, 10 uM IPTG, M9 His DO medium, 37 °C; formaldehyde cross-linking, DNase I digestion, three BR sequences read at once by beacon-assisted detection (MBAD signal); intensity = MBAD signal/Iref of GFP, threshold 1
CheZ (E. coli) = molecular target: T2, CheZ (E. coli) (UniProt P0A9H9); test: as above
T2 sequence: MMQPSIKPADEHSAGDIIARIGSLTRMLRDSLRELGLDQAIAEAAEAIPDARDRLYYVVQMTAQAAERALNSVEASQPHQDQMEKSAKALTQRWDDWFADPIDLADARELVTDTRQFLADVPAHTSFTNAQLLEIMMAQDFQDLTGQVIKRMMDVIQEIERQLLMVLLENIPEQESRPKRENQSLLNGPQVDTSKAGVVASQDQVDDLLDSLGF

EnvZ (E. coli), P0AEJ4 = molecular target: T3, EnvZ (E. coli), P0AEJ4; test: Protein-interactome Footprinting (PiF); in E. coli cells; EnvZ and OmpR fusions in one cell; high osmolality M9 media (100 mM NaCl) or low osmolality M9 media (8.5 mM NaCl), changed in blocks of 40 min; conditions: remark: other sources report otherwise
T3 chain: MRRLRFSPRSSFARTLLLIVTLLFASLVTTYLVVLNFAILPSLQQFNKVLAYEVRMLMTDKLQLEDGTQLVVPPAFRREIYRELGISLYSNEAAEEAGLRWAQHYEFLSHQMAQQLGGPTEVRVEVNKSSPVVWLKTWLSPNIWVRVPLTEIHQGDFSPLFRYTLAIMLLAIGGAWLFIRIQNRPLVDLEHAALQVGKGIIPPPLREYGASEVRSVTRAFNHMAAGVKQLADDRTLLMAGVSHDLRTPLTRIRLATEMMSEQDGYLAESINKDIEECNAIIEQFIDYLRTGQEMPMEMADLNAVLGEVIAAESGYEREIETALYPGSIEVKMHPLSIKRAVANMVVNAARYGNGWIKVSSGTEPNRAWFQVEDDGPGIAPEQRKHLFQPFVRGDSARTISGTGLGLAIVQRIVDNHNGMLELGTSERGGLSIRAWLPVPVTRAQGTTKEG

CheA (E. coli) = CheA (E. coli) (UniProt P07363); test: Protein-interactome Footprinting (PiF); in E. coli JM109 cells co-transformed with X-pPIDATR1 and Y-pPIDKTR2, 10 uM IPTG, M9 His DO medium, 37 °C; formaldehyde cross-linking, DNase I digestion, three BR sequences read at once by beacon-assisted detection (MBAD signal); intensity = MBAD signal/Iref of GFP, threshold 1
CheB (E. coli) [2] = molecular target: T1, CheB (E. coli); test: as above
OmpR (E. coli) = molecular target: T4, OmpR (E. coli) (UniProt P0AA16); test: Protein-interactome Footprinting (PiF); in E. coli cells; EnvZ and OmpR fusions in one cell; high osmolality M9 media (100 mM NaCl) or low osmolality M9 media (8.5 mM NaCl), changed in blocks of 40 min
T4 sequence: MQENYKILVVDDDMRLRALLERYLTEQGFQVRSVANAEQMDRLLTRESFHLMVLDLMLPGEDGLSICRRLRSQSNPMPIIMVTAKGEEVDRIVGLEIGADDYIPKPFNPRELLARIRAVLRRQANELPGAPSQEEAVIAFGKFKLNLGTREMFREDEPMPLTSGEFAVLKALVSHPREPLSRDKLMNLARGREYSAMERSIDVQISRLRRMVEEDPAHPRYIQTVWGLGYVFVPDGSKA

B1: CheB (protein, UniProt P07330 1-349)
chain: MSKIRVLSVDDSALMRQIMTEIINSHSDMEMVATAPDPLVARDLIKKFNPDVLTLDVEMPRMDGLDFLEKLMRLRPMPVVMVSSLTGKGSEVTLRALELGAIDFVTKPQLGIREGMLAYNEMIAEKVRTAAKASLAAHKPLSAPTTLKAGPLLSSEKLIAIGASTGGTEAIRHVLQPLPLSSPALLITQHMPPGFTRSFADRLNKLCQIGVKEAEDGERVLPGHAYIAPGDRHMELSRSGANYQIKIHDGPAVNRHRPSVDVLFHSVAKQAGRNAVGVILTGMGNDGAAGMLAMRQAGAWTLAQNEASCVVFGMPREAINMGGVCEVVDLSQVSQQMLAKISAGQAIRI
binding (CheB (E. coli) [1]): no binding

B3: EnvZ, P0AEJ4 1-450 (protein)
chain: MRRLRFSPRSSFARTLLLIVTLLFASLVTTYLVVLNFAILPSLQQFNKVLAYEVRMLMTDKLQLEDGTQLVVPPAFRREIYRELGISLYSNEAAEEAGLRWAQHYEFLSHQMAQQLGGPTEVRVEVNKSSPVVWLKTWLSPNIWVRVPLTEIHQGDFSPLFRYTLAIMLLAIGGAWLFIRIQNRPLVDLEHAALQVGKGIIPPPLREYGASEVRSVTRAFNHMAAGVKQLADDRTLLMAGVSHDLRTPLTRIRLATEMMSEQDGYLAESINKDIEECNAIIEQFIDYLRTGQEMPMEMADLNAVLGEVIAAESGYEREIETALYPGSIEVKMHPLSIKRAVANMVVNAARYGNGWIKVSSGTEPNRAWFQVEDDGPGIAPEQRKHLFQPFVRGDSARTISGTGLGLAIVQRIVDNHNGMLELGTSERGGLSIRAWLPVPVTRAQGTTKEG
binding (EnvZ (E. coli), P0AEJ4): binds

B4: CheZ (protein, UniProt P0A9H9 1-214)
chain: MMQPSIKPADEHSAGDIIARIGSLTRMLRDSLRELGLDQAIAEAAEAIPDARDRLYYVVQMTAQAAERALNSVEASQPHQDQMEKSAKALTQRWDDWFADPIDLADARELVTDTRQFLADVPAHTSFTNAQLLEIMMAQDFQDLTGQVIKRMMDVIQEIERQLLMVLLENIPEQESRPKRENQSLLNGPQVDTSKAGVVASQDQVDDLLDSLGF
binding (CheZ (E. coli)): binds

B5: CheA (protein, UniProt P07363 1-654)
chain: MSMDISDFYQTFFDEADELLADMEQHLLVLQPEAPDAEQLNAIFRAAHSIKGGAGTFGFSVLQETTHLMENLLDEARRGEMQLNTDIINLFLETKDIMQEQLDAYKQSQEPDAASFDYICQALRQLALEAKGETPSAVTRLSVVAKSEPQDEQSRSQSPRRIILSRLKAGEVDLLEEELGHLTTLTDVVKGADSLSAILPGDIAEDDITAVLCFVIEADQITFETVEVSPKISTPPVLKLAAEQAPTGRVEREKTTRSNESTSIRVAVEKVDQLINLVGELVITQSMLAQRSSELDPVNHGDLITSMGQLQRNARDLQESVMSIRMMPMEYVFSRYPRLVRDLAGKLGKQVELTLVGSSTELDKSLIERIIDPLTHLVRNSLDHGIELPEKRLAAGKNSVGNLILSAEHQGGNICIEVTDDGAGLNRERILAKAASQGLTVSENMSDDEVAMLIFAPGFSTAEQVTDVSGRGVGMDVVKRNIQKMGGHVEIQSKQGTGTTIRILLPLTLAILDGMSVRVADEVFILPLNAVMESLQPREADLHPLAGGERVLEVRGEYLPIVELWKVFNVAGAKTEATQGIVVILQSGGRRYALLVDQLIGQHQVVVKNLESNYRKVPGISAATILGDGSVALIVDVSALQAINREQRMANTAA
binding (CheA (E. coli)): binds
binding (CheB (E. coli) [2]): binds
binding (CheZ (E. coli)): binds

Further lines, results first:

binding (CheY (E. coli)): binds
binding (CheZ (E. coli)): binds
B2: CheY (protein, UniProt P0AE67 1-129)
chain: MADKELKFLVVDDFSTMRRIVRNLLKELGFNNVEEAEDGVDALNKLQAGGYGFVISDWNMPNMDGLELLKTIRADGAMSALPVLMVTAEAKKENIIAAAQAGASGYVVKPFTAATLEEKLNKIFEKLGM

binding (OmpR (E. coli)): binds
B6: OmpR (protein, UniProt P0AA16 1-239)
chain: MQENYKILVVDDDMRLRALLERYLTEQGFQVRSVANAEQMDRLLTRESFHLMVLDLMLPGEDGLSICRRLRSQSNPMPIIMVTAKGEEVDRIVGLEIGADDYIPKPFNPRELLARIRAVLRRQANELPGAPSQEEAVIAFGKFKLNLGTREMFREDEPMPLTSGEFAVLKALVSHPREPLSRDKLMNLARGREYSAMERSIDVQISRLRRMVEEDPAHPRYIQTVWGLGYVFVPDGSKA
